In patent publication EP0358033B1, “Radical polymerizable compositions and their use” (Henkel Kommanditgesellschaft auf Aktien, priority 1988, dated 1990):

Assay: Ability of the acid component to allow initiation of polymerization by the activator system
Conditions: acid added to the activator system (tert. amine / metal compound / acid)

| Structure (SMILES) | Eignung zur Auslösung von Polymerisationsreaktionen |
| --- | --- |
| O=C(O)C(Cl)(Cl)Cl [Trichloressigsäure] | zerstört die Fähigkeit |
| CC(=O)O [Essigsäure] | eignet sich hervorragend zur beschleunigten Reaktionsauslösung |
| O=C(O)C(Cl)Cl [Dichloressigsäure] | sehr gut geeignet |
| Cl [Salzsäure] | stören ebenfalls die Fähigkeit zur Polymerisationsauslösung |
